The list shows only some results of the screen, not a fair sample: it is rich in T/C values a quarter to a half above the control, in often repeated tests (any T/C) and in doses without a T/C. Other doses and runs of a compound stand elsewhere. T/C is the treated group as % of the vehicle group. Some doses have a count of surviving animals in place of a T/C: the source files T/C as zero there, which appears to mark a toxic dose or a test without result, not a measured value. Some survivor counts are full or nearly so, which does not show that the dose was tolerated: survival well below the control is almost never listed, so the zero probably covers shortened survival too. Survivors were counted at the toxicity check, usually on the fifth day, unless a day is given; later deaths do not show. Schedule codes are those of the source, read here as Q, the interval in days (D) or hours (H), X, the number of doses. Some doses were run more than once; their values stand side by side, smallest first. Where survival is the endpoint, this PubChem deposit counts one and a half times the control or more as active, and values a quarter to a half above the control carry no call in these data; other NCI protocols may use other cut-offs. Some T/C values are followed by the survivors on the day toxicity was checked, most often the fifth; without a count, all were alive then. Additions like (4×) say how often a value occurs here.
Test system: P388 leukemia ip, CD2F1 mice, survival T/C
Experiment: NCI In Vivo Anticancer Drug Screen. Data for tumor model P388 Leukemia (intraperitoneal) in CD2F1 (CDF1) mice
Settings: T/C endpoint: median survival time, higher T/C = longer survival
[1] = dose: 12.5 mg/kg/injection, schedule: Q01DX009 (ip), vehicle: water
[2] = dose: 25.0 mg/kg/injection, schedule: Q01DX009 (ip), vehicle: saline
[3] = dose: 25.0 mg/kg/injection, schedule: Q01DX009 (ip), vehicle: water
[4] = dose: 100.0 mg/kg/injection, schedule: Q01DX005 (ip), vehicle: Klucel (hydroxypropylcellulose) (HPC)
[5] = dose: 200.0 mg/kg/injection, schedule: Q01DX005 (ip), vehicle: Klucel (hydroxypropylcellulose) (HPC)
[6] = dose: 200.0 mg/kg/injection, schedule: Q01DX005 (ip), vehicle: saline with Tween-80
[7] = dose: 25.0 mg/kg/injection, schedule: Q01DX009 (ip), vehicle: Klucel (hydroxypropylcellulose) (HPC)
[8] = dose: 50.0 mg/kg/injection, schedule: Q01DX009 (ip), vehicle: Klucel (hydroxypropylcellulose) (HPC)
[9] = dose: 100.0 mg/kg/injection, schedule: Q01DX009 (ip), vehicle: Klucel (hydroxypropylcellulose) (HPC)
[10] = dose: 200.0 mg/kg/injection, schedule: Q01DX009 (ip), vehicle: Klucel (hydroxypropylcellulose) (HPC)

With `O=NNc1ccccn1` the T/C (dose: 1.56 mg/kg/injection, schedule: Q01DX009 (ip), vehicle: saline) was 96, 103 (2×), 104 (2×), 105 (2×), 108 (2×), 109 (2×), 111 (3×), 115, 120, 125 % of control, the T/C (dose: 1.56 mg/kg/injection, schedule: Q01DX009 (ip), vehicle: water) was 100 (2×), 101, 103, 104, 105, 106, 107, 108 (5×), 109, 110 (2×), 111 (2×), 112, 113 (3×), 114 (2×), 115 (2×), 116, 117 (2×), 118 (2×), 119, 120, 123, 124, 131 % of control and the T/C (dose: 3.12 mg/kg/injection, schedule: Q01DX005 (ip), vehicle: water) was 118, 124, 137, 138 % of control. For the same compound, the T/C (dose: 3.12 mg/kg/injection, schedule: Q01DX009 (ip), vehicle: saline) was 99, 102, 103, 105, 106, 108, 117 (2×), 118, 119, 122, 124, 125, 127, 128, 136 % of control [5 of 6 alive], the T/C (dose: 3.12 mg/kg/injection, schedule: Q01DX009 (ip), vehicle: water) was 124, 127, 128, 129 (2×), 130, 133, 135, 141, 150 % of control and the T/C (dose: 3.13 mg/kg/injection, schedule: Q01DX009 (ip), vehicle: saline) was 126 [5 of 6 alive] and 131 % of control. For the same compound, the T/C (dose: 3.13 mg/kg/injection, schedule: Q01DX009 (ip), vehicle: water) was 106, 108, 109, 110, 114, 115, 116, 118, 120, 123 (3×), 124 (4×), 126, 127, 130 (2×), 131 (2×), 132 (3×), 133 (2×), 142 % of control, the T/C (dose: 6.0 mg/kg/injection, schedule: Q01DX009 (ip), vehicle: water) was 131 % of control and the T/C (dose: 6.25 mg/kg/injection, schedule: Q01DX005 (ip), vehicle: water) was 118, 130, 137, 143 % of control. For the same compound, the T/C (dose: 6.25 mg/kg/injection, schedule: Q01DX009 (ip), vehicle: saline + alcohol) was 137 % of control, the T/C (dose: 6.25 mg/kg/injection, schedule: Q01DX009 (ip), vehicle: saline) was 103, 106, 109, 112 (2×), 118, 120, 122 (2×), 125, 127, 130 (3×), 135 (2×), 136, 152, 164 % of control and the T/C (dose: 6.25 mg/kg/injection, schedule: Q01DX009 (ip), vehicle: water) was 108, 117, 122, 124, 127 [5 of 6 alive], 128 (2×), 131, 133 (2×), 134, 136 (2×), 137, 138 (2×), 139, 140 (2×), 141 (5×), 143, 144 (2×), 145 (2×), 147 (2×), 148, 149, 150 (3×), 162, 171 % of control. For the same compound, the T/C (dose: 12.5 mg/kg/injection, schedule: Q01DX005 (ip), vehicle: water) was 133 [5 of 6 alive], 153, 155, 174 % of control, the T/C (dose: 12.5 mg/kg/injection, schedule: Q01DX009 (ip), vehicle: saline + alcohol) was 137 % of control and the T/C (dose: 12.5 mg/kg/injection, schedule: Q01DX009 (ip), vehicle: saline) was 100, 102, 114, 119, 122, 126 (3×), 131, 137, 140, 146, 146 [5 of 6 alive], 147 (2×), 149, 150, 151, 152 % of control. The T/C [1] was 100, 108, 130, 137 (2×), 139, 140, 141 (2×), 142, 146, 147 (2×), 148, 149, 151, 152 (2×), 153, 153 [5 of 6 alive], 156 (2×), 158 (2×), 160, 161, 162, 163 (2×), 166, 168, 169, 171, 172, 174, 175 % of control, the survivor count [1] was 6 of 6 and the survivor count (dose: 25.0 mg/kg/injection, schedule: Q01DX005 (ip), vehicle: water) was 6 of 6. For the same compound, the T/C [2] was 86, 113, 116, 128, 134, 140, 147, 153, 155, 159, 161, 172, 174, 181, 187, 190 % of control, the survivor count [2] was 3 of 6 and 6 of 6 and the T/C [3] was 87, 89, 93, 95, 96 (2×), 99 (2×), 100, 101 [5 of 6 alive], 102, 103, 105, 106, 107, 109, 127, 141, 150, 155, 167 % of control. The survivor count [3] was 4 of 6 and 6 of 6 and the survivor count (dose: 50.0 mg/kg/injection, schedule: Q01DX005 (ip), vehicle: water) was 3 of 6.
With `COc1ccc(CN2CCCNCC2)cc1` the survivor count (dose: 200.0 mg/kg/injection, schedule: Q01DX009 (ip), vehicle: water) was 2 of 5.
`C=C1C(=O)OC2C(OC=O)CCCC12` (stereo not given) was tested, and the survivor count (dose: 240.0 mg/kg/injection, schedule: Q01DX005 (ip), vehicle: Klucel (hydroxypropylcellulose) (HPC)) was 0 of 6.
In the case of `NCCSSc1ccc([N+](=O)[O-])cc1`, the survivor count (dose: 50.0 mg/kg/injection, schedule: Q04DX002 (ip), vehicle: Klucel (hydroxypropylcellulose) (HPC)) is reported as 4 of 5, the survivor count (dose: 100.0 mg/kg/injection, schedule: Q04DX002 (ip), vehicle: Klucel (hydroxypropylcellulose) (HPC)) is reported as 1 of 5 and the survivor count (dose: 200.0 mg/kg/injection, schedule: Q04DX002 (ip), vehicle: Klucel (hydroxypropylcellulose) (HPC)) is reported as 0 of 5. The survivor count (dose: 400.0 mg/kg/injection, schedule: Q04DX002 (ip), vehicle: Klucel (hydroxypropylcellulose) (HPC)) was 0 of 5.
For `O=C(Nc1ccccc1Cl)Oc1ccc(C(=O)c2ccccc2)cc1`, the survivor count (dose: 60.0 mg/kg/injection, schedule: Q01DX005 (ip), vehicle: saline with Tween-80) was 6 of 6, the survivor count (dose: 120.0 mg/kg/injection, schedule: Q01DX005 (ip), vehicle: saline with Tween-80) was 6 of 6 and the survivor count (dose: 240.0 mg/kg/injection, schedule: Q01DX005 (ip), vehicle: saline with Tween-80) was 6 of 6.
For `CC(CNC(Cc1ccccc1)c1ccccc1)NC(Cc1ccccc1)c1ccccc1` (stereo not given), the survivor count [4] was 5 of 5 and the survivor count [5] was 3 of 5.
In the case of `CC[C@@H]1C[C@@H]2CN3CCc4c([nH]c5cc(Cc6ccc(OC)c(OC)c6)c(OC)cc45)C(C(=O)OC)(C2)C13`, the survivor count (dose: 2.0 mg/kg/injection, schedule: Q01DX009 (ip), vehicle: Klucel (hydroxypropylcellulose) (HPC)) is reported as 6 of 6.
With `Nc1nnc(SCCCCCCSc2nnc(N)s2)s1` the survivor count [6] was 6 of 6.
In the case of `NN1C(=O)C2C3C=CC(C4CC34)C2C1=O` (stereo not given), the survivor count [7] is reported as 5 of 6, the survivor count [8] is reported as 0 of 6 and the survivor count [9] is reported as 0 of 6. The survivor count [10] was 0 of 6.
In the case of `Cc1ccc(S(=O)(=O)N/N=C/c2ccncc2)cc1`, the T/C (dose: 88.0 mg/kg/injection, schedule: Q01DX009 (ip), vehicle: other) is reported as 128 % of control, the T/C (dose: 133.0 mg/kg/injection, schedule: Q01DX009 (ip), vehicle: other) is reported as 131 % of control and the T/C (dose: 200.0 mg/kg/injection, schedule: Q01DX009 (ip), vehicle: other) is reported as 128 % of control. The T/C (dose: 300.0 mg/kg/injection, schedule: Q01DX009 (ip), vehicle: other) was 131 % of control.
In the case of `O=C(O)c1cc(-c2ccc(Cl)cc2)nc2cc(Cl)ccc12`, the survivor count [6] is reported as 0 of 6.
With `CS(=O)(=O)OCCN(CCOS(C)(=O)=O)c1ccc(N=Nc2ccccc2C(=O)O)cc1` the T/C (dose: 0.39 mg/kg/injection, schedule: Q01DX009 (ip), vehicle: Klucel (hydroxypropylcellulose) (HPC)) was 126 % of control, the survivor count (dose: 12.5 mg/kg/injection, schedule: Q01DX009 (ip), vehicle: Klucel (hydroxypropylcellulose) (HPC)) was 6 of 6 and the survivor count [7] was 6 of 6.
In the case of `O=C(Cl)C=Cc1ccc([N+](=O)[O-])cc1` (mixture of isomers), the survivor count (dose: 200.0 mg/kg/injection, schedule: Q01DX009 (ip), vehicle: saline) is reported as 6 of 6.
`Cc1cccn2cnnc12` was tested, and the survivor count (dose: 400.0 mg/kg/injection, schedule: Q01DX009 (ip), vehicle: saline) was 0 of 6.
With `CN=C(NC)c1ccc(NC(=O)c2cc(OC)cc(C(=O)Nc3ccc(C(=NC)NC)cc3)c2)cc1` the survivor count (dose: 50.0 mg/kg/injection, schedule: Q01DX005 (ip), vehicle: Klucel (hydroxypropylcellulose) (HPC)) was 0 of 6, the survivor count [4] was 0 of 6 and the survivor count [5] was 0 of 6.
For `CS(=O)(=O)CCS(C)(=O)=O`, the survivor count (dose: 100.0 mg/kg/injection, schedule: Q01DX009 (ip), vehicle: saline with Tween-80) was 6 of 6.
With `Clc1ccc(-c2nnc(-c3cccc(Cl)n3)o2)c(Cl)c1` the survivor count (dose: 175.0 mg/kg/injection, schedule: Q01DX005 (ip), vehicle: saline with Tween-80) was 6 of 6.
`C/C(N)=C\C(=S)Nc1ccccc1` was tested, and the survivor count [8] was 6 of 6, the survivor count [9] was 1 of 6 and the survivor count [10] was 0 of 6.
With `CCCCN(CCC#N)c1ccc(/C=C/c2ccnc3ccccc23)cc1` the survivor count [9] was 6 of 6 and the survivor count [10] was 0 of 6.
